Laboratory results from patent US20250368729A1.
No constants are given. Whether binding was seen depends on the method and setting. In cells and extracts the contact can be indirect. Binding can be weak; no strength is given.

Target: murine AA amyloid deposits (in mice with systemic AA amyloidosis, H2/IL-6 transgenic) (mouse)
Assay: pulldown of 125I-labelled peptide with the substrate pellet (correlation plot against 125I-Igp5)

binding: binds
Binder: KAQKAQAKQAKQAQKAQKAQAKQAKQ (125I label) [125I-p5]
